Measured values: US20100261711A1, “SELECTIVE ANTICONVULSANT AGENTS AND THEIR USES” (WiSys Technology Foundation, priority 2009, published 2010)
Values joined by “and” are separate entries in the source; they are usually repeats but may differ in a detail not shown here. Equal values may be shown once. Read-outs that look alike come from different tables or passages of the source.

Columns and labels:
[1] = tested on: Pilocarpine-induced Status; assay: Pilocarpine-induced status; type: in vivo, rats; conditions: weight change 24 hours post seizure
[2] = tested on: Metrazol-induced clonic seizures; conditions: Mice IP; from Antiepileptic Drugs, 5th ed., Levy et al., 2002; cited from earlier work
[3] = tested on: Metrazol-induced clonic seizures; assay: Subcutaneous Metrazol test (scMet), mice; type: in vivo; conditions: Mice IP
Procedure: (§1) The benzodiazepine derivative compounds selective for GABAa receptor subunits were tested for the ability to suppress seizures in several standard rat and mouse models of epilepsy. […] The standard models incorporated into anticonvulsant screening include the maximal electroshock test (MES), the subcutaneous Metrazol test (scMet), and evaluations of toxicity (TOX). The data for each condition is presented as a ratio of either the number of animals protected or toxic (loss of locomotor activity) over the number of animals tested at a given time point and dose.
(§2) Subcutaneous injection of the convulsant Metrazol produces clonic seizures in laboratory animals. […] Animals are pretreated with various doses of the test compound (in a similar manner to the MES test, although a dose of 50 mg/kg (po) is the standard for Test 2 scMet). At the previously determined TPE of the test compound, the dose of Metrazol which will induce convulsions in 97% of animals (CD97: 85 mg/kg mice) is injected into a loose fold of skin in the midline of the neck. […] An episode of clonic spasms, approximately 3-5 seconds, of the fore and/or hindlimbs, jaws, or vibrissae is taken as the endpoint.

[4] = tested on: Metrazol-induced clonic seizures; assay: Subcutaneous Metrazol test (scMet), rats; type: in vivo; conditions: Rat PO
Procedure: as §1, §2

[5] = 600 mg/kg, 0 Hrs post first Stage III seizure
[6] = 1,000 mg/kg, 0.5 Hrs post first Stage III seizure

Row | Structure (SMILES) | TI TD50/ED50 (scMet) [2] | TI TD50/ED50 (scMet) [3] | TI TD50/ED50 (scMet) [4] | further results
1 | C#Cc1ccc2c(c1)C(c1ccccc1)=N[C@H](C)c1nnc(C)n1-2 [SH-TR-CH3 (146), (4R)-8-Ethynyl-1,4-dimethyl-6-phenyl-4H-benzo[f][1,2,4]triazolo[4,3-a][1,4]diazepine] |  |  |  | Avg. Weight Change ± SEM, Non-Protected Rats [1, 5]: -13.3 ± 1.0 g; Avg. Weight Change ± SEM, Protected Rats [1, 5]: -5.0 ± 4.8 g; Avg. Weight Change ± SEM, Non-Protected Rats [1, 6]: -19.0 ± 0.8 g; Avg. Weight Change ± SEM, Protected Rats [1, 6]: +5.0 ± 0.0 g
2 | O=C1CN=C(c2ccccc2Cl)c2cc([N+](=O)[O-])ccc2N1 [Clonazepan] | 13 |  |  | 
3 | C#Cc1ccc2c(c1)C(c1ccccc1Cl)=NCc1nnc(C)n1-2 [XLi-JY-DMH (23), 8-Acetyleno-5-(2′-chlorophenyl)-1-methyl-4H-s-triazolo-[4,3-a]-1,4-benzodiazepine] |  | 2.9 | > 105 | 
4 | O=C1NC(=O)C(c2ccccc2)(c2ccccc2)N1 [Phenytoin] | <0.82 |  |  | 
5 | C#Cc1ccc2c(c1)C(c1ccccc1F)=NCc1c(C(=O)OCC)ncn1-2 [JY-XHe-053 (15), Ethyl-8-acetyleno-6-(2′-fluorophenyl)-4H-benzo[f]imidazo[1,5-a][1,4]diazepine-3-carboxylate] |  | 44 and >44 | >21 | 
